This is an account of results in US20240218065A1.

The chains behind the UniProt entries cited, without tags or fusion partners. Residues count along the entry.
UniProt O14931, residues 19-138: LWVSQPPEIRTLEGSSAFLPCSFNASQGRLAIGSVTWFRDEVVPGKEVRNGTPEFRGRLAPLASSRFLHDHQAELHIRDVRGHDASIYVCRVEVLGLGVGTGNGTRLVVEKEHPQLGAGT

Results are given in words; binding and its absence hold for the method and conditions named. Some binding calls cover weakened binding; strength is not graded here. For some assays here: Where a sequence is shown, tags or fusion partners need not be part of it.

In assay [1] the target is Human-NKP30-His (Kactus, cat: NKP-HM430) (human) (UniProt O14931). The experiment in a line: ELISA: Human-NKP30-His coated, antibody titrated 3-fold from 10 µg/mL, HRP goat anti-human IgG-Fc, OD450-OD570. For orientation: In an ELISA, binding on a coated surface is turned into a signal by an enzyme label.
For assay [2] the target is unchanged. The experiment in a line: ELISA: Human-NKP30-His coated at 0.2 µg/mL, antibody titrated 3-fold from 10 µg/mL (7 points), HRP goat anti-human IgG-Fc, OD450-OD570.
The target is the same in assay [3]. The assay can be described thus: ELISA, Human-NKP30-His coated, anti-human IgG-Fc HRP.
Assay [4] deals with T1, Human-CD24-His (Acro, cat: CD4-H5254) (human) (UniProt P25063).
T1 sequence (looked up): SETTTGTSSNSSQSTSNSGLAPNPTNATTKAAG
The assay can be described thus: ELISA, Human-CD24-His coated, anti-human IgG-Fc HRP.

The target in assay [5] is T1, Human-CD24-His (Acro, cat: CD4-H5254) (human). The experiment in a line: ELISA: Human-CD24-His coated at 0.2 µg/mL, antibody titrated 3-fold (7 points), HRP goat anti-human IgG-Fc, OD450-OD570.

B1: NKP30 humanized antibody (antibody, V domains shown)
VH: EVQLVESGGGLVQPGGSLRLSCAASGITFSRSVMGWFRQAPGKLRELVAGITSDDNTDYADSVKGRFTISRDNSKNTLYLQMNSLRAEDTAVYYCNILPDSRLGWGQGTLVTVSS
Regarding B1, the binding entry in assay [1], in assay [2] and in assay [3] was “binds” each time.

B2: CD24 monoclonal antibody (antibody, human IgG1, kappa, V domains shown)
VH: QVQLVQSGSELKKPGASVKVSCKASGYIFTDYAIHWVRQAPGQGLEWMGFINTATGEPTYADDFKGRFVFSLDTSVSTAYLQISSLKAEDTAVYFCTSGVHWGQGTLVTVSS
VL: DIQMTQSPSTLSASVGDRVTITCSASSSVSSMHWYQQKPGKAPKLLIYSTSNLASGVPSRFSGSGSGTEYTLTISSLQPDDFATYYCHHWTSYMYTFGGGTKVEIKR
For B2, the binding result in assay [4] and in assay [5] was “binds” in each case.
